Reference: US10806739B2, “Use of n-desmethylclobazam in the treatment of chronic pain disorders and related methods” (LES HOPITAUX UNIV[…] GENEVE, priority 2015, dated 2020)

Tested on: α1GABAAR-mediated sedation
Assay: Dose dependence of sedation in triple (H→R) point-mutated mice
Conditions: dose response curves
Protocol: Mice (C57BL/6J or 129X1/SvJ) were tested during the light phase of the day-night cycle. […] Motor activity expressed as the total number of photocell interruptions was recorded for 6 h.

Structure (SMILES): O=C1CC(=O)N(c2ccccc2)c2cc(Cl)ccc2N1 [NDMC, 8-Chloro-1-phenyl-1H-1,5-benzodiazepine-2,4(3H,5H)-dione]
- Dose for maximum sedation compared with dose for maximum analgesia: maximum sedation is achieved at higher NDMC dose as compared to NMDC dose needed to achieve maximum analgesia

Structure (SMILES): CN1C(=O)CN=C(c2ccccc2)c2cc(Cl)ccc21 [DZP, diazepam]
- Dose for maximum sedation compared with dose for maximum analgesia: maximum sedation is achieved at lower DZP dose as compared to DZP dose needed to achieve maximum analgesia
